These are yes or no findings as the source states them, for the method shown. Binding seen in cells or lysates may run through a third protein. Some entries that bind do so weakly or less than the wild type. Where a sequence is shown, tags or fusion partners need not be part of it.
Tests used:
Experiment in all cases: co-IP
GFP::PAR-5 (C. elegans) = biological target: T1, GFP::PAR-5 (C. elegans) (UniProt P41932)
T1 sequence: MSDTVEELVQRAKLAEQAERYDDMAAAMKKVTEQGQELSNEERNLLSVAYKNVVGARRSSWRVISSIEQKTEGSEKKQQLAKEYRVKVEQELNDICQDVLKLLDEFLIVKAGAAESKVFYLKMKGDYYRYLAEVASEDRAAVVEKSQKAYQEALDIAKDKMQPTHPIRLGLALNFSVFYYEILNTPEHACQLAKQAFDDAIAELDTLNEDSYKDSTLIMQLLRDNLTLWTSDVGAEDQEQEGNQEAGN

The chains behind the UniProt entries cited, without tags or fusion partners.
UniProt P24734: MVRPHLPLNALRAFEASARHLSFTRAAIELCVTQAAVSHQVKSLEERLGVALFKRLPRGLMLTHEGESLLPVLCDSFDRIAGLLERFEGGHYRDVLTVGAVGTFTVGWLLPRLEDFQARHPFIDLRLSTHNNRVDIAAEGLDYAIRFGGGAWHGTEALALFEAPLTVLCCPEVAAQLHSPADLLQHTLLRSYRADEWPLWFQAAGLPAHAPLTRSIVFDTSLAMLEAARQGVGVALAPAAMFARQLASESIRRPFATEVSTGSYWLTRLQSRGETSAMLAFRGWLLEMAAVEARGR
UniProt Q9HWH1: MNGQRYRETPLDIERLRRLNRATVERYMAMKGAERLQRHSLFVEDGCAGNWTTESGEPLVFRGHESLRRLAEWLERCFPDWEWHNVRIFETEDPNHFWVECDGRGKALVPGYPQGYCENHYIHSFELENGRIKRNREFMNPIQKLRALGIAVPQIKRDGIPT
UniProt Q95Q95: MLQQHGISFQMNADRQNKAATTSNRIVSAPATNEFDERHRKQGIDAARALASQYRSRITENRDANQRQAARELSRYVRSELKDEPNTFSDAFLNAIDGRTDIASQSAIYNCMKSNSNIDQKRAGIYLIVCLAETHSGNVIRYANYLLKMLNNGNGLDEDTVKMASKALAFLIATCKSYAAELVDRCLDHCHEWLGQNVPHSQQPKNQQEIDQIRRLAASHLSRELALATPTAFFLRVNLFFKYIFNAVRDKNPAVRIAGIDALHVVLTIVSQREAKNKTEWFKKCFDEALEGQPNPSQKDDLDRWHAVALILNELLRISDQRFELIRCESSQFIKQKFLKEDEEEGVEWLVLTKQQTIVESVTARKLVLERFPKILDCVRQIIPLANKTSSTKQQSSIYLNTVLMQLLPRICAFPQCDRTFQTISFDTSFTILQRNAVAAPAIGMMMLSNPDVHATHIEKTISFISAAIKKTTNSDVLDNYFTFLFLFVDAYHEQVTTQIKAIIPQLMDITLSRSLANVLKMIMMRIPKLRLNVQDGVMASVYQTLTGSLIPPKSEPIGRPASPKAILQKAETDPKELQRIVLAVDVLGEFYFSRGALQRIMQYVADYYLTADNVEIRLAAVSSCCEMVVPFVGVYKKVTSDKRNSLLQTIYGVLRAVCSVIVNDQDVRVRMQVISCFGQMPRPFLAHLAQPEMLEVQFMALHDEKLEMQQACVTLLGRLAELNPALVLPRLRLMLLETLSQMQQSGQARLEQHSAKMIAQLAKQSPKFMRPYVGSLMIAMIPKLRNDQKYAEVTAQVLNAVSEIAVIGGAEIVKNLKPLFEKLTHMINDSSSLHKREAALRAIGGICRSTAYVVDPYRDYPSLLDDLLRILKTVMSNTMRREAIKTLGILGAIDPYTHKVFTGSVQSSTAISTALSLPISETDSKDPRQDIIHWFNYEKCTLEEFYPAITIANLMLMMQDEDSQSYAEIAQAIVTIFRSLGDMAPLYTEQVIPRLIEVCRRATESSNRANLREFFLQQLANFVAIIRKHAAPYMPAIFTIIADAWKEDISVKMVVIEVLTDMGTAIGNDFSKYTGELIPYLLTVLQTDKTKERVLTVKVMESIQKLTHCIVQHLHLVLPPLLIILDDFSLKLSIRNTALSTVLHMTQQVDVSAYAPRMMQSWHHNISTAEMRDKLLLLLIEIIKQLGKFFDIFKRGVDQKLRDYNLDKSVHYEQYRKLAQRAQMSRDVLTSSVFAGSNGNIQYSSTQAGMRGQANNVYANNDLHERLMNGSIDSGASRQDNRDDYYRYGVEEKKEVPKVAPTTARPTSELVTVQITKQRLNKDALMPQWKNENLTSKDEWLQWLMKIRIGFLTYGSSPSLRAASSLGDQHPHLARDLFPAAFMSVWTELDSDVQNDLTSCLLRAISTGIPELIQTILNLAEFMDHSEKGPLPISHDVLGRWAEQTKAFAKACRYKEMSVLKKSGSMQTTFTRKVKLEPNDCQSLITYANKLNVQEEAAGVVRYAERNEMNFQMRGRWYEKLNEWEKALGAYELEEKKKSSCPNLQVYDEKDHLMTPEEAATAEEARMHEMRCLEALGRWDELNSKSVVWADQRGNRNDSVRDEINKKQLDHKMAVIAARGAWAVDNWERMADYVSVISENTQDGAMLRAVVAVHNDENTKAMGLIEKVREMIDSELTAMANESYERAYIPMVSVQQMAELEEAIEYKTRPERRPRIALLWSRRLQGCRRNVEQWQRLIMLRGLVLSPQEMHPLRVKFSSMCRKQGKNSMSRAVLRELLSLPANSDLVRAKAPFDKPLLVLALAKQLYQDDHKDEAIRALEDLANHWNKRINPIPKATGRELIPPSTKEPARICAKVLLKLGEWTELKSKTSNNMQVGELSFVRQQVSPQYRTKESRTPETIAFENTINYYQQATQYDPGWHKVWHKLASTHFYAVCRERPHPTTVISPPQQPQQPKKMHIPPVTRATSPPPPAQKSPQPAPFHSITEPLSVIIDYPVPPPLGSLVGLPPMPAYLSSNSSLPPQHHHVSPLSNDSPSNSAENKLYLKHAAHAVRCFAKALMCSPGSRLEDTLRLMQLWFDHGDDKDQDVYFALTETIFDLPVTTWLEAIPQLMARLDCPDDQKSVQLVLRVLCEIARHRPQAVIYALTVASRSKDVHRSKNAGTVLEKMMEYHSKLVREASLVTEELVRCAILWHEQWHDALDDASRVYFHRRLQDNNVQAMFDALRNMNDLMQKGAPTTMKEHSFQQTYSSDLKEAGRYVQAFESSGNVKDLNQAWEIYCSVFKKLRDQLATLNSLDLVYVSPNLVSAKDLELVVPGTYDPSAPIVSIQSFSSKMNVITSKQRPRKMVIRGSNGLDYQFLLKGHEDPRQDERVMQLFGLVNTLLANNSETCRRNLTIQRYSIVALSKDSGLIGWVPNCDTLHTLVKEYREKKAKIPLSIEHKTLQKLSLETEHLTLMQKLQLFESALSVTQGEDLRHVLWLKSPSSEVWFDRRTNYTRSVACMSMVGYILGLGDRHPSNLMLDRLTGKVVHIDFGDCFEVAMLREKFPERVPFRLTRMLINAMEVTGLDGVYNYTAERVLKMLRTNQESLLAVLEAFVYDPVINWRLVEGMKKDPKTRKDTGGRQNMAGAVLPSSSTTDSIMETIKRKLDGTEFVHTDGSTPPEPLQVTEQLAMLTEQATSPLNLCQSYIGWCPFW

[1] = biological target: FLAG-AMPR (P. aeruginosa PA14) (UniProt P24734)
[2] = biological target: FLAG-PHZA1 (P. aeruginosa PA14) (UniProt Q9HWH1)
[3] = biological target: FLAG::LET-363 (C. elegans) (UniProt Q95Q95)

FLAG::LET-363 (from UniProt Q95Q95 1-2697)
binding (GFP::PAR-5 (C. elegans)): binds

B1: His-PAR-5 (protein, UniProt P41932 1-248)
chain: T1 sequence
binding [1]: binds
binding [2]: binds

B2: GFP::PAR-5 (protein, UniProt P41932 1-248)
chain: T1 sequence
binding [3]: binds

Reference: doi:10.1101/2024.01.31.578330
